Measured values taken from the supplement of paper PMC7661543.
± gives the standard deviation of the averaged measurements. Differences between knockout arms are mostly noise.

Tested on: HCC-38
Experiment: relative cell number vs DMSO control (72 h) (% of DMSO); higher = less growth inhibition (more cells)
Description: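 QMAP-Seq: a pool of 5 breast cancer cell lines (ZR-75-1, SKBR3, HCC-38, MDA-MB-231, BT-20), each carrying 12 doxycycline-inducible Cas9 sgRNA perturbations (11 knockouts plus non-targeting sgNT), was treated with compounds for 72 h at four 10-fold doses (10 nM-10 uM or 1 nM-1 uM range). Barcodes were amplified and sequenced, and cell number was interpolated from 293T spike-in standard curves. The result is expressed as % of the median of DMSO wells. Two biological replicates.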

COc1cc2nccc(Oc3ccc(NC(=O)Nc4cc(C)on4)c(Cl)c3)c2cc1OC [Tivozanib]
Settings | relative cell number
sgRNA knockout: sgATF3, 10 nM | 96.6 ± 5.4
sgRNA knockout: sgATF3, 100 nM | 96.9 ± 3.9
sgRNA knockout: sgATF3, 1000 nM | 103 ± 5.4
sgRNA knockout: sgATF3, 10000 nM | 50.2 ± 3.9
sgRNA knockout: sgATF4, 10 nM | 102 ± 14
sgRNA knockout: sgATF4, 100 nM | 85.16 ± 0.46
sgRNA knockout: sgATF4, 1000 nM | 93.34 ± 0.64
sgRNA knockout: sgATF4, 10000 nM | 50 ± 4
sgRNA knockout: sgATF6, 10 nM | 98.2 ± 12
sgRNA knockout: sgATF6, 100 nM | 103 ± 16
sgRNA knockout: sgATF6, 1000 nM | 125 ± 5.5
sgRNA knockout: sgATF6, 10000 nM | 58.1 ± 13
sgRNA knockout: sgATG7, 10 nM | 92.9 ± 4.5
sgRNA knockout: sgATG7, 100 nM | 96.1 ± 13
sgRNA knockout: sgATG7, 1000 nM | 103 ± 4.4
sgRNA knockout: sgATG7, 10000 nM | 52.7 ± 2.4
sgRNA knockout: sgERN1, 10 nM | 98.9 ± 12
sgRNA knockout: sgERN1, 100 nM | 91.6 ± 9.6
sgRNA knockout: sgERN1, 1000 nM | 95.4 ± 3.9
sgRNA knockout: sgERN1, 10000 nM | 56.1 ± 3.9
sgRNA knockout: sgHSF1, 10 nM | 91.6 ± 14
sgRNA knockout: sgHSF1, 100 nM | 102 ± 1.4
sgRNA knockout: sgHSF1, 1000 nM | 100 ± 34
sgRNA knockout: sgHSF1, 10000 nM | 70.3 ± 3.8
sgRNA knockout: sgHSF2, 10 nM | 90.1 ± 4.4
sgRNA knockout: sgHSF2, 100 nM | 94.7 ± 1.7
sgRNA knockout: sgHSF2, 1000 nM | 105 ± 2
sgRNA knockout: sgHSF2, 10000 nM | 59.69 ± 0.47
sgRNA knockout: sgKEAP1, 10 nM | 108 ± 6.2
sgRNA knockout: sgKEAP1, 100 nM | 98.4 ± 5
sgRNA knockout: sgKEAP1, 1000 nM | 91.8 ± 2.2
sgRNA knockout: sgKEAP1, 10000 nM | 62.5 ± 8.8
sgRNA knockout: sgNFE2L2, 10 nM | 98.6 ± 20
sgRNA knockout: sgNFE2L2, 100 nM | 94.4 ± 16
sgRNA knockout: sgNFE2L2, 1000 nM | 99.2 ± 2.4
sgRNA knockout: sgNFE2L2, 10000 nM | 50.3 ± 1.5
sgRNA knockout: sgSLC35F2, 10 nM | 92.4 ± 13
sgRNA knockout: sgSLC35F2, 100 nM | 93.7 ± 17
sgRNA knockout: sgSLC35F2, 1000 nM | 104 ± 6.6
sgRNA knockout: sgSLC35F2, 10000 nM | 55.5 ± 3.1
sgRNA knockout: sgXBP1, 10 nM | 94.9 ± 18
sgRNA knockout: sgXBP1, 100 nM | 92.3 ± 13
sgRNA knockout: sgXBP1, 1000 nM | 98.59 ± 0.29
sgRNA knockout: sgXBP1, 10000 nM | 57.08 ± 0.46

CN/C(=N\CCSCc1nc[nH]c1C)NC#N [Cimetidine]
Settings | relative cell number
sgRNA knockout: sgATF3, 10 nM | 108 ± 12
sgRNA knockout: sgATF3, 100 nM | 102 ± 2
sgRNA knockout: sgATF3, 1000 nM | 98.81 ± 0.34
sgRNA knockout: sgATF3, 10000 nM | 104 ± 6.3
sgRNA knockout: sgATF4, 10 nM | 103 ± 14
sgRNA knockout: sgATF4, 100 nM | 105 ± 3.9
sgRNA knockout: sgATF4, 1000 nM | 94.1 ± 5.7
sgRNA knockout: sgATF4, 10000 nM | 96.9 ± 11
sgRNA knockout: sgATF6, 10 nM | 113 ± 12
sgRNA knockout: sgATF6, 100 nM | 96 ± 16
sgRNA knockout: sgATF6, 1000 nM | 123 ± 2.7
sgRNA knockout: sgATF6, 10000 nM | 134 ± 9.8
sgRNA knockout: sgATG7, 10 nM | 102 ± 8.9
sgRNA knockout: sgATG7, 100 nM | 111 ± 8.3
sgRNA knockout: sgATG7, 1000 nM | 96 ± 13
sgRNA knockout: sgATG7, 10000 nM | 98.1 ± 9.7
sgRNA knockout: sgERN1, 10 nM | 101.7 ± 0.55
sgRNA knockout: sgERN1, 100 nM | 108 ± 20
sgRNA knockout: sgERN1, 1000 nM | 98.2 ± 16
sgRNA knockout: sgERN1, 10000 nM | 116 ± 4.2
sgRNA knockout: sgHSF1, 10 nM | 104 ± 20
sgRNA knockout: sgHSF1, 100 nM | 114 ± 24
sgRNA knockout: sgHSF1, 1000 nM | 117 ± 12
sgRNA knockout: sgHSF1, 10000 nM | 140 ± 13
sgRNA knockout: sgHSF2, 10 nM | 103 ± 3.5
sgRNA knockout: sgHSF2, 100 nM | 113 ± 16
sgRNA knockout: sgHSF2, 1000 nM | 110 ± 16
sgRNA knockout: sgHSF2, 10000 nM | 106 ± 10
sgRNA knockout: sgKEAP1, 10 nM | 129 ± 1.3
sgRNA knockout: sgKEAP1, 100 nM | 110 ± 40
sgRNA knockout: sgKEAP1, 1000 nM | 118 ± 12
sgRNA knockout: sgKEAP1, 10000 nM | 134 ± 12
sgRNA knockout: sgNFE2L2, 10 nM | 100 ± 17
sgRNA knockout: sgNFE2L2, 100 nM | 101 ± 3.7
sgRNA knockout: sgNFE2L2, 1000 nM | 98.1 ± 14
sgRNA knockout: sgNFE2L2, 10000 nM | 102 ± 18
sgRNA knockout: sgSLC35F2, 10 nM | 99.4 ± 15
sgRNA knockout: sgSLC35F2, 100 nM | 110 ± 1.2
sgRNA knockout: sgSLC35F2, 1000 nM | 91 ± 4.8
sgRNA knockout: sgSLC35F2, 10000 nM | 104 ± 7.3
sgRNA knockout: sgXBP1, 10 nM | 98.2 ± 13
sgRNA knockout: sgXBP1, 100 nM | 109 ± 6.5
sgRNA knockout: sgXBP1, 1000 nM | 97.6 ± 13
sgRNA knockout: sgXBP1, 10000 nM | 97.4 ± 14

CC(C)(C)c1cnc(CSc2cnc(NC(=O)C3CCNCC3)s2)o1 [SNS032]
Settings | relative cell number
sgRNA knockout: sgATF3, 10 nM | 108 ± 9.1
sgRNA knockout: sgATF3, 100 nM | 86 ± 14
sgRNA knockout: sgATF3, 1000 nM | 16.4 ± 3.8
sgRNA knockout: sgATF3, 10000 nM | 28.1 ± 2.4
sgRNA knockout: sgATF4, 10 nM | 107 ± 22
sgRNA knockout: sgATF4, 100 nM | 85.9 ± 6.4
sgRNA knockout: sgATF4, 1000 nM | 20.7 ± 2.4
sgRNA knockout: sgATF4, 10000 nM | 24.12 ± 0.1
sgRNA knockout: sgATF6, 10 nM | 106 ± 6.4
sgRNA knockout: sgATF6, 100 nM | 83.5 ± 19
sgRNA knockout: sgATF6, 1000 nM | 24 ± 10
sgRNA knockout: sgATF6, 10000 nM | 28.7 ± 1.2
sgRNA knockout: sgATG7, 10 nM | 107 ± 18
sgRNA knockout: sgATG7, 100 nM | 85.9 ± 9
sgRNA knockout: sgATG7, 1000 nM | 18.5 ± 3.1
sgRNA knockout: sgATG7, 10000 nM | 26.8 ± 2.5
sgRNA knockout: sgERN1, 10 nM | 107 ± 12
sgRNA knockout: sgERN1, 100 nM | 86.49 ± 0.56
sgRNA knockout: sgERN1, 1000 nM | 18.8 ± 1.9
sgRNA knockout: sgERN1, 10000 nM | 28.3 ± 4.3
sgRNA knockout: sgHSF1, 10 nM | 84.6 ± 15
sgRNA knockout: sgHSF1, 100 nM | 81.6 ± 16
sgRNA knockout: sgHSF1, 1000 nM | 11.1 ± 0.47
sgRNA knockout: sgHSF1, 10000 nM | 24.9 ± 5.3
sgRNA knockout: sgHSF2, 10 nM | 101 ± 6.3
sgRNA knockout: sgHSF2, 100 nM | 96.9 ± 12
sgRNA knockout: sgHSF2, 1000 nM | 16.7 ± 0.96
sgRNA knockout: sgHSF2, 10000 nM | 29.7 ± 4.5
sgRNA knockout: sgKEAP1, 10 nM | 107 ± 37
sgRNA knockout: sgKEAP1, 100 nM | 73.7 ± 1.3
sgRNA knockout: sgKEAP1, 1000 nM | 13.2 ± 0.68
sgRNA knockout: sgKEAP1, 10000 nM | 22.5 ± 1.1
sgRNA knockout: sgNFE2L2, 10 nM | 102 ± 24
sgRNA knockout: sgNFE2L2, 100 nM | 81.6 ± 4.8
sgRNA knockout: sgNFE2L2, 1000 nM | 20.5 ± 4.5
sgRNA knockout: sgNFE2L2, 10000 nM | 24.3 ± 0.64
sgRNA knockout: sgSLC35F2, 10 nM | 97.7 ± 14
sgRNA knockout: sgSLC35F2, 100 nM | 85.6 ± 6
sgRNA knockout: sgSLC35F2, 1000 nM | 21.3 ± 0.96
sgRNA knockout: sgSLC35F2, 10000 nM | 28.4 ± 0.38
sgRNA knockout: sgXBP1, 10 nM | 101 ± 7.5
sgRNA knockout: sgXBP1, 100 nM | 83.8 ± 4.7
sgRNA knockout: sgXBP1, 1000 nM | 18.6 ± 0.99
sgRNA knockout: sgXBP1, 10000 nM | 26 ± 0.74
